According to paper PMC2994555:
Results are given in words; binding and its absence hold for the method and conditions named. Binding seen in cells or lysates may run through a third protein. Some entries that bind do so weakly or less than the wild type.

Amino acid sequences for entries named in this document (tags omitted). Residues count along the entry.
UniProt Q92673, residues 82-2214: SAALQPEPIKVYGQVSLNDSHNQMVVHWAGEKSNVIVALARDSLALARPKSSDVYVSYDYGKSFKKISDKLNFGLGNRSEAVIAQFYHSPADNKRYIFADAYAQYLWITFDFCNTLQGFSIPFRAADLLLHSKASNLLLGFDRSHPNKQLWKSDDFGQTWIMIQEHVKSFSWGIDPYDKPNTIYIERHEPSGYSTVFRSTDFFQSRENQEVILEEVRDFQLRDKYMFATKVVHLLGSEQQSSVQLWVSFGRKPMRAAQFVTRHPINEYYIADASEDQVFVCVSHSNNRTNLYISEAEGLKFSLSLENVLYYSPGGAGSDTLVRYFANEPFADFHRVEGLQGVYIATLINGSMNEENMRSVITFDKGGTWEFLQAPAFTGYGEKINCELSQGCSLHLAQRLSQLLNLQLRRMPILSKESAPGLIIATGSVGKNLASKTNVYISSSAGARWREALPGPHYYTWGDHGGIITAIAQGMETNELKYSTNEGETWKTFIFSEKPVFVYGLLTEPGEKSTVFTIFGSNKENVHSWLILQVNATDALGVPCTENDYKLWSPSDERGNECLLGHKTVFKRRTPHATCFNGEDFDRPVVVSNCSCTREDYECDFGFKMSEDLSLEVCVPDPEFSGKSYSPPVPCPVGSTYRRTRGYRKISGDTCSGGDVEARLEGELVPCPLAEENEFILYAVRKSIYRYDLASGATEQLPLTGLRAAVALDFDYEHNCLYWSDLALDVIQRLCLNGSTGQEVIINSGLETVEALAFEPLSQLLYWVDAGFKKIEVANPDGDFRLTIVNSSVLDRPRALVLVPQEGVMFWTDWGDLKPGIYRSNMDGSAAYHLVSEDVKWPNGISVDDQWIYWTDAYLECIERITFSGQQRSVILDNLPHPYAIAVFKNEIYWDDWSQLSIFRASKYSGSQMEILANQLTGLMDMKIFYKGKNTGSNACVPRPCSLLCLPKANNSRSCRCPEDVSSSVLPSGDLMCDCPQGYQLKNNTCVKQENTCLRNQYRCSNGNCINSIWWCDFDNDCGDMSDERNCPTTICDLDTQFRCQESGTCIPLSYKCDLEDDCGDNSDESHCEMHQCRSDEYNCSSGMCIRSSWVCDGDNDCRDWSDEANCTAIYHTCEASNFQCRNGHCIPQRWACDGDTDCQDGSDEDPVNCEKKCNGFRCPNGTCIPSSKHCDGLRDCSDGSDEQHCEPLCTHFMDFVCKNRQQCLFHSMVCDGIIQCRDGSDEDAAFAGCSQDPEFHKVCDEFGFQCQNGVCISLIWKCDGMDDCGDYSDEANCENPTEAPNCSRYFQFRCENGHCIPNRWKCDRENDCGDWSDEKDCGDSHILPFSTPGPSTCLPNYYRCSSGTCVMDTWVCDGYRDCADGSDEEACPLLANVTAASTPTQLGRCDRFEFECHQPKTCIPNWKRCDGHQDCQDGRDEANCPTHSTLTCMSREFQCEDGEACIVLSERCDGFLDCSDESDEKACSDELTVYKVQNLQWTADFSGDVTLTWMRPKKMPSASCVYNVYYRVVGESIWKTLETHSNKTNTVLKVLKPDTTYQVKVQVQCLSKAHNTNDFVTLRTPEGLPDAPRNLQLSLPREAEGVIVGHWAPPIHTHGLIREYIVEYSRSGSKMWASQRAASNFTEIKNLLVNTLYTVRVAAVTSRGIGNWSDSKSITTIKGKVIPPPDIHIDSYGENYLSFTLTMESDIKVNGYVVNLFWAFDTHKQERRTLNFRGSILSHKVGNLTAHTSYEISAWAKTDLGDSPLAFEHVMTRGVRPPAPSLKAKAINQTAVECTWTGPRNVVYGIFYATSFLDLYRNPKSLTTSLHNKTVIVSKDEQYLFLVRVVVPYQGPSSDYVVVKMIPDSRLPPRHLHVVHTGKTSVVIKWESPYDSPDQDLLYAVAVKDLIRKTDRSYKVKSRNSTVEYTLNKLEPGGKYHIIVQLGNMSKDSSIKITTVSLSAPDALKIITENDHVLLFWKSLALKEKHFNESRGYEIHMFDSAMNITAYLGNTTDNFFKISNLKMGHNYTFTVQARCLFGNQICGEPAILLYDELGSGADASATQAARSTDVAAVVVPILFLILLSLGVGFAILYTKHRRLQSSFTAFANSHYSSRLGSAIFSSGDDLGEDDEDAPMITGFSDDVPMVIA

Tests used:
[1] = molecular target: SorLA expressed in HEK293T cells (UniProt Q92673); assay: co-IP; HEK293T cotransfected with SorLA, APP695 and eGFP, 48 h; lysate (50 mM TrisHCl pH 7.5, 100 mM NaCl, 1 mM EDTA, 1% Nonidet P-40); IP with anti-APP C-terminus 369 or anti-SorLA N-terminus, pre-immune serum as control; blots with 369, anti-SorLA C-terminus and anti-GFP
[2] = molecular target: APP695 expressed in HEK293T cells (human) (UniProt P05067); assay: as above

Substance	binding [1]	binding [2]
APP695 expressed in HEK293T cells (from UniProt P05067-4 18-695)	binds	–
SorLA expressed in HEK293T cells (from UniProt Q92673 82-2214) (receptor)	–	binds
